Measurements as given in patent publication US20150362492A1.
Results are given in words; binding and its absence hold for the method and conditions named. Some entries that bind do so weakly or less than the wild type.

Assays:
[1] = biological target: T1, activated C1s (commercial Quidel functional C1-INH ELISA kit) (UniProt P09871); test: commercial functional complex ELISA (Quidel) based on inhibition of activated C1s by plasma C1-INH
T1 sequence (looked up): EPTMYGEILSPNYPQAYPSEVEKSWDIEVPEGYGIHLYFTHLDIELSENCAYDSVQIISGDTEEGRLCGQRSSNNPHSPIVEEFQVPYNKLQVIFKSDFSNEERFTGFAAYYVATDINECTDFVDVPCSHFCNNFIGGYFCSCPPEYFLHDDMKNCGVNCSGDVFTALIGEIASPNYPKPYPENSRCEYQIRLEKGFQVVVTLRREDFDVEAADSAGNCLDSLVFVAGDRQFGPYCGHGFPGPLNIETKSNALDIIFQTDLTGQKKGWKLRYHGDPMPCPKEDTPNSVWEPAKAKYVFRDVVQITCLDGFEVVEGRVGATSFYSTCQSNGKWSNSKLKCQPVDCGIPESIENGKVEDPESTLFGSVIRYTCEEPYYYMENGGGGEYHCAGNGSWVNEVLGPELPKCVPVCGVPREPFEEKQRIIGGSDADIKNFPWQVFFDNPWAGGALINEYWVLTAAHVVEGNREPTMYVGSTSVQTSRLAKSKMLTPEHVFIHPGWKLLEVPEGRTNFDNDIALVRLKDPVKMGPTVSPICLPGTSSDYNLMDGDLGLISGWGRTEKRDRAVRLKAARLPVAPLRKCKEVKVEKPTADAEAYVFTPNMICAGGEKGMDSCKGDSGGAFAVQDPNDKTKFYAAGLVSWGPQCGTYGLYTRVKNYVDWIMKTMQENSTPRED

[2] = biological target: T2, purified human Factor XIIa (activated Factor XII), biotinylated (human) (UniProt P00748); test: functional ELISA based on inhibition of FXII: biotinylated Factor XIIa on avidin plate, plasma, anti-C1-INH detection, read against a C1-INH standard curve
T2 sequence (chain, biotinylated with Sulfo-NHS-LC-Biotin (sites not stated)): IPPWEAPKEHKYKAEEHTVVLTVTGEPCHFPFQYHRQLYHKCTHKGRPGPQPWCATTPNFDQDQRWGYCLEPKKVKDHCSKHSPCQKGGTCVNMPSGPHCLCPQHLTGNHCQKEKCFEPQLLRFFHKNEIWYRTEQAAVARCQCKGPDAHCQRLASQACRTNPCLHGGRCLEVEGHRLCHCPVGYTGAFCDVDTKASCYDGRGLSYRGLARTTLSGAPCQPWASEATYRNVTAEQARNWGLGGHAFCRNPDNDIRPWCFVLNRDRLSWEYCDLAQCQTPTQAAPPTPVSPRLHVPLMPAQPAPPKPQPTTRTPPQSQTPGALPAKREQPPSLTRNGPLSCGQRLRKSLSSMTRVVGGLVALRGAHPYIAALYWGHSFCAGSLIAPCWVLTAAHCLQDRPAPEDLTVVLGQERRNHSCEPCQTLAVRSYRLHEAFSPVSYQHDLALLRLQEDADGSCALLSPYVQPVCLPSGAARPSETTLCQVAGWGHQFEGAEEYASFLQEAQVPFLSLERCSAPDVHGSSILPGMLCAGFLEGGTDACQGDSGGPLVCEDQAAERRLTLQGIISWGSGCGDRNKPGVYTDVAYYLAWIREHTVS

[3] = biological target: T2, purified human Factor XIIa (activated Factor XII), biotinylated (human); test: complex ELISA, biotinylated enzyme on avidin plate, anti-C1-INH detection
[4] = biological target: T2, purified human Factor XIIa (activated Factor XII), biotinylated (human); test: complex ELISA: biotinylated Factor XIIa captured on avidin plate, incubated with plasma, bound C1-INH detected with polyclonal anti-C1-INH and alkaline phosphatase secondary antibody
[5] = biological target: T2, purified human Factor XIIa (activated Factor XII), biotinylated (human); test: complex ELISA, biotinylated Factor XIIa on avidin plate, plasma samples, anti-C1-INH detection

Measured: binding

B1: plasma protease C1 inhibitor (C1-INH) in plasma of healthy (normal) controls (protein)
chain: NPNATSSSSQDPESLQDRGEGKVATTVISKMLFVEPILEVSSLPTTNSTTNSATKITANTTDEPTTQPTTEPTTQPTIQPTQPTTQLPTDSPTQPTTGSFCPGPVTLCSDLESHSTEAVLGDALVDFSLKLYHAFSAMKKVETNMAFSPFSIASLLTQVLLGAGENTKTNLESILSYPKDFTCVHQALKGFTTKGVTSVSQIFHSPDLAIRDTFVNASRTLYSSSPRVLSNNSDANLELINTWVAKNTNNKISRLLDSLPSDTRLVLLNAIYLSAKWKTTFDPKKTRMEPFHFKNSVIKVPMMNSKKYPVAHFIDQTLKAKVGQLQLSHNLSLVILVPQNLKHRLEDMEQALSPSVFKAIMEKLEMSKFQPTLLTLPRIKVTTSQDMLSIMEKLEFFDFSYDLNLCGLTEDPDLQVSAMQHQTVLELTETGVEAAAASAISVARTLLVFEVQQPFLFVLWDQQHKFPVFMGRVYDPRA
binds: all assays above
